Results from PubChem BioAssay AID330 (DTP/NCI, 2004).
The list is a part of this screen's results and no random one: it gathers tests that were run many times, whatever their T/C, doses with no T/C, and many T/C values between a quarter and a half above the control. Further doses and runs are listed elsewhere. T/C gives the treated animals as a percentage of the vehicle group. Some entries give survivors of the animals treated and no T/C: the source holds a T/C of zero for them, seemingly a mark for toxic or unscored doses. Some doses without a T/C left all or most animals alive at the check, yet need not have been tolerated: the source hardly ever lists a survival T/C far under the control, and the zero likely stands for such cases as well. Survivors were counted at the toxicity check, usually on the fifth day, unless a day is given; later deaths do not show. Schedules are NCI's codes, taken here to give the interval after Q, in days (D) or hours (H), and the number of doses after X. Some doses were run more than once; their values stand side by side, smallest first. For survival time, the PubChem record calls one and a half times the control and up active, and a quarter to a half above the control has no call in these data; cut-offs in other NCI protocols can differ. Some T/C values are followed by the survivors on the day toxicity was checked, most often the fifth; where none is given, no animal had died by that day.

Test system: P388 leukemia ip, CD2F1 mice, survival T/C
Assay: NCI In Vivo Anticancer Drug Screen. Data for tumor model P388 Leukemia (intraperitoneal) in CD2F1 (CDF1) mice
Conditions: T/C endpoint: median survival time, higher T/C = longer survival
[1] = dose: 100.0 mg/kg/injection, schedule: Q01DX005 (ip), vehicle: saline with Tween-80
[2] = dose: 200.0 mg/kg/injection, schedule: Q01DX005 (ip), vehicle: saline with Tween-80
[3] = dose: 400.0 mg/kg/injection, schedule: Q04DX003 (ip), vehicle: Klucel (hydroxypropylcellulose) (HPC)
[4] = dose: 100.0 mg/kg/injection, schedule: Q01DX009 (ip), vehicle: Klucel (hydroxypropylcellulose) (HPC)
[5] = dose: 200.0 mg/kg/injection, schedule: Q01DX009 (ip), vehicle: Klucel (hydroxypropylcellulose) (HPC)
[6] = dose: 200.0 mg/kg/injection, schedule: Q01DX005 (ip), vehicle: saline
[7] = dose: 100.0 mg/kg/injection, schedule: Q04DX002 (ip), vehicle: saline with Tween-80
[8] = dose: 200.0 mg/kg/injection, schedule: Q04DX002 (ip), vehicle: saline with Tween-80
[9] = dose: 400.0 mg/kg/injection, schedule: Q04DX002 (ip), vehicle: saline with Tween-80
[10] = dose: 100.0 mg/kg/injection, schedule: Q01DX005 (ip), vehicle: Klucel (hydroxypropylcellulose) (HPC)
[11] = dose: 200.0 mg/kg/injection, schedule: Q04DX003 (ip), vehicle: Klucel (hydroxypropylcellulose) (HPC)
[12] = dose: 200.0 mg/kg/injection, schedule: Q01DX009 (ip), vehicle: saline with Tween-80

Q: What does the source list for `C/C(=N\NC(=S)N1CCN(C2CCCCC2)CC1)c1ccccn1`?
A: survivor count (dose: 12.5 mg/kg/injection, schedule: Q01DX005 (ip), vehicle: saline with Tween-80): 3 of 6; survivor count (dose: 25.0 mg/kg/injection, schedule: Q01DX005 (ip), vehicle: saline with Tween-80): 1 of 6; survivor count (dose: 50.0 mg/kg/injection, schedule: Q01DX005 (ip), vehicle: saline with Tween-80): 1 of 6; survivor count [1]: 0 of 6; survivor count [2]: 0 of 6

Q: `O=C(O)Cc1nn[nH]n1` was tested. Which survivor count [3] did it give?
A: 6 of 6

Q: Which results are given for `CN(C)Cc1cc(C(=O)c2ccccc2)c(O)cc1O`?
A: survivor count [4]: 6 of 6; survivor count [5]: 0 of 6

Q: How did the survivor count (dose: 240.0 mg/kg/injection, schedule: Q01DX005 (ip), vehicle: saline) turn out when `O=C(O)CN(CCN1CC(=O)OC(=O)C1)CCN1CC(=O)OC(=O)C1` was run?
A: 1 of 6

Q: With `CSCCCNCc1ccc([N+](=O)[O-])cc1` as the molecule, how does the survivor count [6] read?
A: 0 of 6

Q: With `CC(CNC(=O)CCBr)NC(=O)CCBr` (stereo unspecified) as the molecule, how does the survivor count (dose: 50.0 mg/kg/injection, schedule: Q01DX009 (ip), vehicle: saline) read?
A: 3 of 6

Q: And the T/C (dose: 50.0 mg/kg/injection, schedule: Q01DX009 (ip), vehicle: suspension in saline)?
A: 125 % of control

Q: And the T/C (dose: 100.0 mg/kg/injection, schedule: Q01DX009 (ip), vehicle: saline)?
A: 149 % of control [5 of 6 alive]

Q: What about the T/C (dose: 100.0 mg/kg/injection, schedule: Q01DX009 (ip), vehicle: suspension in saline) of the same molecule?
A: 140 % of control

Q: What about the survivor count (dose: 200.0 mg/kg/injection, schedule: Q01DX009 (ip), vehicle: suspension in saline) of the same molecule?
A: 3 of 6

Q: How did the survivor count [7] turn out when `CC(NC(=O)C(N)Cc1ccc(Cl)cc1)P(=O)(O)O` (stereo unspecified) was run?
A: 2 of 6

Q: What about the survivor count [8] of the same molecule?
A: 1 of 6

Q: What about the survivor count [9] of the same molecule?
A: 0 of 6

Q: For `O=C1C=CC2(C=C1)CCCCC2`, which survivor count (dose: 200.0 mg/kg/injection, schedule: Q01DX001 (ip), vehicle: Klucel (hydroxypropylcellulose) (HPC)) is on record?
A: 3 of 6

Q: `O=C1OCCN1/N=C\c1ccccc1` was tested. Which survivor count (dose: 400.0 mg/kg/injection, schedule: Q01DX009 (ip), vehicle: saline) did it give?
A: 5 of 6

Q: For `CCCCOC(=O)NP1(=O)NCc2ccccc2CN1`, which survivor count [10] is on record?
A: 5 of 5

Q: With `CC1=CC(C)(C)N(C)C(N)=N1` as the molecule, how does the survivor count (dose: 50.0 mg/kg/injection, schedule: Q01DX005 (ip), vehicle: saline) read?
A: 3 of 5

Q: What about the survivor count (dose: 100.0 mg/kg/injection, schedule: Q01DX005 (ip), vehicle: saline) of the same molecule?
A: 0 of 6

Q: And the survivor count [6]?
A: 0 of 6

Q: Which survivor count (dose: 16.0 mg/kg/injection, schedule: Q01DX009 (ip), vehicle: acid diluted with saline) does the source give for `CC(O)CNCCNc1ccc(NCCNCC(C)O)c2c1C(=O)c1c(O)ccc(O)c1C2=O` (stereo unspecified) here?
A: 6 of 6

Q: Which results are given for `Cc1ccc2c(c1)C1(C)OC(C=CC1=O)O2` (stereo unspecified)?
A: T/C (dose: 50.0 mg/kg/injection, schedule: Q04DX003 (ip), vehicle: Klucel (hydroxypropylcellulose) (HPC)): 129 % of control; T/C (dose: 100.0 mg/kg/injection, schedule: Q04DX003 (ip), vehicle: Klucel (hydroxypropylcellulose) (HPC)): 125 % of control; T/C [11]: 128 % of control [5 of 6 alive]; survivor count [11]: 0 of 6; survivor count [3]: 0 of 6

Q: How did the survivor count [10] turn out when `CC(=C/c1cc(C)cc(=O)o1)/C=C/c1ccc(C)c(C)c1C` was run?
A: 5 of 6

Q: `CCCN(C)CC(C)(O)CNc1cc(OC)cc2cccnc12` (stereo unspecified) was tested. Which survivor count [1] did it give?
A: 0 of 5

Q: And the survivor count [2]?
A: 0 of 5

Q: Which results are given for `COC(=O)c1cc(=O)n(-c2ccccc2)c(SC)n1`?
A: survivor count (dose: 25.0 mg/kg/injection, schedule: Q04DX002 (ip), vehicle: Klucel (hydroxypropylcellulose) (HPC)): 6 of 6; survivor count (dose: 200.0 mg/kg/injection, schedule: Q04DX002 (ip), vehicle: Klucel (hydroxypropylcellulose) (HPC)): 5 of 5; survivor count (dose: 400.0 mg/kg/injection, schedule: Q04DX002 (ip), vehicle: Klucel (hydroxypropylcellulose) (HPC)): 0 of 5

Q: `O=S(=O)(O)O.[Cu+2].[NH-]CCC[N-]CCCC[N-]CCC[NH-]` was tested. Which T/C (dose: 25.0 mg/kg/injection, schedule: Q01DX001 (ip), vehicle: saline) did it give?
A: 129 % of control

Q: And the survivor count (dose: 50.0 mg/kg/injection, schedule: Q01DX001 (ip), vehicle: saline)?
A: 1 of 6 and 2 of 6

Q: What about the survivor count (dose: 100.0 mg/kg/injection, schedule: Q01DX001 (ip), vehicle: saline) of the same molecule?
A: 0 of 6

Q: And the survivor count (dose: 200.0 mg/kg/injection, schedule: Q01DX001 (ip), vehicle: saline)?
A: 0 of 6

Q: `CCOP(=S)(OCC)OC(=O)C(C)SSC` (stereo unspecified) (tested in a mixture with another compound) was tested. Which survivor count (dose: 240.0 mg/kg/injection, schedule: Q01DX005 (ip), vehicle: saline with Tween-80) did it give?
A: 0 of 6

Q: Which survivor count (dose: 50.0 mg/kg/injection, schedule: Q01DX005 (ip), vehicle: Klucel (hydroxypropylcellulose) (HPC)) does the source give for `C=C1C(=O)OC2C1C(O)C(OC(=O)/C(C)=C/C)C(C)C1C(=O)C=C(C)C21` (stereo unspecified) here?
A: 5 of 6

Q: And the survivor count [10]?
A: 2 of 6

Q: With `CC(=O)O[C@H]1CC[C@]2(C)C34OC3C[C@]3(C)[C@@H](C(C)=O)CC[C@H]3[C@]43C=C[C@@]2(C1)C1C(=O)OC(=O)C13` (stereo partly specified) as the molecule, how does the survivor count (dose: 200.0 mg/kg/injection, schedule: Q01DX005 (ip), vehicle: Klucel (hydroxypropylcellulose) (HPC)) read?
A: 3 of 5

Q: Which survivor count [5] does the source give for `COc1cc2c(cc1[N+](=O)[O-])C(=O)C(Br)(Br)CCC2` here?
A: 2 of 6

Q: What does the source list for `C=CC[P+](CC[P+](CC=C)(c1ccccc1)c1ccccc1)(c1ccccc1)c1ccccc1`?
A: survivor count (dose: 25.0 mg/kg/injection, schedule: Q04DX002 (ip), vehicle: saline): 0 of 6; survivor count [7]: 0 of 6; survivor count [8]: 0 of 6; survivor count [9]: 0 of 6

Q: With `N#CN=[N+]([O-])c1ccc(C(=O)O)cc1` as the molecule, how does the T/C (dose: 30.0 mg/kg/injection, schedule: Q04DX003 (ip), vehicle: Klucel (hydroxypropylcellulose) (HPC)) read?
A: 128 % of control [5 of 6 alive]

Q: What about the survivor count (dose: 60.0 mg/kg/injection, schedule: Q04DX003 (ip), vehicle: saline with Tween-80) of the same molecule?
A: 2 of 6

Q: Which survivor count [12] does the source give for `CN(C(=O)C1CC1)c1ccccc1` here?
A: 4 of 6

Q: What about the survivor count (dose: 400.0 mg/kg/injection, schedule: Q01DX009 (ip), vehicle: saline with Tween-80) of the same molecule?
A: 4 of 6

Q: What does the source list for `CC(=O)OCC1OC(OC2=C(CC=C(C)C)C(=O)c3ccccc3C2=O)C(OC(C)=O)C(OC(C)=O)C1OC(C)=O` (stereo unspecified)?
A: T/C (dose: 50.0 mg/kg/injection, schedule: Q01DX009 (ip), vehicle: Klucel (hydroxypropylcellulose) (HPC)): 126 and 132 % of control; T/C [4]: 125 % of control; survivor count [4]: 3 of 6; survivor count [5]: 5 of 6 and 6 of 6

Q: What does the source list for `COC1=C(OC)C(=O)C(SCCCCCCC2CCCCC2)=CC1=O`?
A: survivor count (dose: 2.0 mg/kg/injection, schedule: Q01DX009 (ip), vehicle: Klucel (hydroxypropylcellulose) (HPC)): 6 of 6; survivor count (dose: 4.0 mg/kg/injection, schedule: Q01DX009 (ip), vehicle: Klucel (hydroxypropylcellulose) (HPC)): 6 of 6; survivor count (dose: 8.0 mg/kg/injection, schedule: Q01DX009 (ip), vehicle: Klucel (hydroxypropylcellulose) (HPC)): 6 of 6

Q: How did the survivor count [11] turn out when `O=C(O)c1ccc2c(c1Cl)C(=O)c1ccccc1C2=O` was run?
A: 5 of 6

Q: For `CC(N)C12CC3CC(CC(C3)C1)C2` (stereo unspecified), which survivor count (dose: 200.0 mg/kg/injection, schedule: Q04DX002 (ip), vehicle: suspension in saline) is on record?
A: 0 of 6

Q: And the survivor count (dose: 400.0 mg/kg/injection, schedule: Q04DX002 (ip), vehicle: suspension in saline)?
A: 0 of 6

Q: `CC(=Nc1ccccc1)Nc1ccccc1.[Cu+2]` was tested. Which survivor count (dose: 50.0 mg/kg/injection, schedule: Q01DX009 (ip), vehicle: saline with Tween-80) did it give?
A: 5 of 6

Q: And the survivor count (dose: 100.0 mg/kg/injection, schedule: Q01DX009 (ip), vehicle: saline with Tween-80)?
A: 3 of 6

Q: And the survivor count [12]?
A: 5 of 6
